Test results reported in US12097241B2, “Methods of treating kidney failure, and/or improving or stablizing renal function using modified relaxin polypeptides” (BRISTOL-MYERS SQUIBB COMPANY, priority 2017, dated 2024).
For some of these results: Not every detail of the peptide structures is certain; ends, links or a residue may be inferred. At least one compound was matched to its structure with a doubt left.

Legend:
[1] = Viscosity; format: physicochemical; conditions: compared with AQ1-20 kDa PEG
[2] = molecular target: T1, human RXFP1 receptor (Homo sapiens, UniProt Q9HBX9); assay: Intracellular cAMP accumulation assay; format: cell-based; conditions: CHO-K1 cells stably expressing human RXFP1; 10 min at 37° C.; HTRF cAMP; average; read-out: hRXFP1/CHO-K1 cAMP EC50 (nM, avg)
T1 construct: expressed in transfected cells
T1 sequence (Q9HBX9 1-757): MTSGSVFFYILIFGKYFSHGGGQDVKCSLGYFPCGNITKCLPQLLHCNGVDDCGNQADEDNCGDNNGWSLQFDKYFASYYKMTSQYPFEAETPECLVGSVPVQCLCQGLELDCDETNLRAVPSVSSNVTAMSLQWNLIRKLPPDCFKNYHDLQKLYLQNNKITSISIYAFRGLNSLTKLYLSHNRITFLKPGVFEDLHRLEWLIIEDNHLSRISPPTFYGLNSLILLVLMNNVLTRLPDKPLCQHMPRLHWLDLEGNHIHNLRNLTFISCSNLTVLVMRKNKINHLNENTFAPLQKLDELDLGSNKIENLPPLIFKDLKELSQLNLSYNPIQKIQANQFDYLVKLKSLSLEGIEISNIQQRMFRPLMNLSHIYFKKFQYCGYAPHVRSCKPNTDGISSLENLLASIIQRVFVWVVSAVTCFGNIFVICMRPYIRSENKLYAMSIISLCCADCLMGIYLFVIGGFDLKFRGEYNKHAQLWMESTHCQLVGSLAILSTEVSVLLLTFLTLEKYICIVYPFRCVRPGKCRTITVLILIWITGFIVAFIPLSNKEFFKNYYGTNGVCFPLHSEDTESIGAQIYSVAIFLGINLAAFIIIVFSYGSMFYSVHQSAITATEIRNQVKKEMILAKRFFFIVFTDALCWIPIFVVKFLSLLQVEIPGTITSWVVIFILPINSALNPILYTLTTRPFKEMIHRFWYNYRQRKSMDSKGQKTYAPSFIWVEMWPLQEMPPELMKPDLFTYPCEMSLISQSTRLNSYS

[3] = tested on: Primary Human Cardiac Fibroblasts (NHCF-V); assay: Smooth muscle alpha-actin gene expression (qRT-PCR) in TGF-beta treated human primary cardiac fibroblasts; format: cell-based; conditions: TGF-beta treated (0.5 ng/mL; 24 hr) primary human cardiac fibroblasts, mRNA normalized to L30

With `CC[C@H](C)[C@@H]1NC(=O)[C@H](C)NC(=O)[C@H]([C@@H](C)CC)NC(=O)[C@H](CCC(N)=O)NC(=O)[C@H](C)NC(=O)[C@H](CCCNC(=N)N)NC(=O)[C@H](C(C)C)NC(=O)[C@H](CC(C)C)NC(=O)[C@H](CCC(=O)O)NC(=O)[C@H](CCCNC(=N)N)NC(=O)CNC(=O)[C@@H](NC(=O)[C@H](CC(C)C)NC(=O)[C@H](CCCCN)NC(=O)[C@@H](NC(=O)[C@@H](NC(=O)[C@H](CCC(=O)O)NC(=O)[C@H](CCC(=O)O)NC(=O)[C@H](CCSC)NC(=O)[C@H](Cc2c[nH]c3ccccc23)NC(=O)[C@H](CO)NC(=O)[C@H](C)N)C(C)C)[C@@H](C)CC)CSSC[C@@H]2NC(=O)[C@@H](NC(=O)[C@H](CCCCN)NC(=O)[C@H](CC(N)=O)NC(=O)[C@H](C)NC(=O)[C@H](CC(C)C)NC(=O)[C@H](C)NC(=O)[C@H](CO)NC(=O)[C@H](Cc3ccc(O)cc3)NC(=O)[C@H](CC(C)C)NC(=O)[C@@H](N)Cc3ccc(/C(C)=N/OCCNC(=O)CNC(=O)CNC(=O)CNC(=O)CNC(=O)[C@H](CO)NC(=O)CC[C@H](NC(=O)CCCCCCCCCCCCCC(=O)O)C(=O)O)cc3)CSSC[C@H](NC(=O)CNC(=O)[C@H](C(C)C)NC(=O)[C@H](Cc3c[nH]cn3)NC2=O)C(=O)N[C@@H]([C@@H](C)O)C(=O)N[C@@H](CCCCN)C(=O)N[C@@H](CCCNC(=N)N)C(=O)N[C@@H](CO)C(=O)N[C@@H](CC(C)C)C(=O)N[C@@H](C)C(=O)N[C@@H](CCCNC(=N)N)C(=O)N[C@@H](Cc2ccccc2)C(=O)N[C@H](C(=O)O)CSSC[C@@H](C(=O)NCC(=O)N[C@@H](CCSC)C(=O)N[C@@H](CO)C(=O)N[C@H](C(=O)N[C@@H](Cc2c[nH]c3ccccc23)C(=O)N[C@@H](CO)C(=O)O)[C@@H](C)O)NC1=O` [AQ1-GGGGS-Glu^γ-C14-COOH] the viscosity [1] was “significantly lower viscosity than AQ1-20 kDa PEG”, the EC50 [2] was 0.28 nM and the “expression of pro-fibrotic gene smooth muscle alpha-actin” value [3] was “decreases in gene expression were concentration dependent and equally robust”.
With `CC[C@H](C)[C@@H]1NC(=O)[C@H](C)NC(=O)[C@H]([C@@H](C)CC)NC(=O)[C@H](CCC(N)=O)NC(=O)[C@H](C)NC(=O)[C@H](CCCNC(=N)N)NC(=O)[C@H](C(C)C)NC(=O)[C@H](CC(C)C)NC(=O)[C@H](CCC(=O)O)NC(=O)[C@H](CCCNC(=N)N)NC(=O)CNC(=O)[C@@H](NC(=O)[C@H](CC(C)C)NC(=O)[C@H](CCCCN)NC(=O)[C@@H](NC(=O)[C@@H](NC(=O)[C@H](CCC(=O)O)NC(=O)[C@H](CCC(=O)O)NC(=O)[C@H](CCSC)NC(=O)[C@H](Cc2c[nH]c3ccccc23)NC(=O)[C@H](CO)NC(=O)[C@@H](N)CC(=O)O)C(C)C)[C@@H](C)CC)CSSC[C@@H]2NC(=O)[C@@H](NC(=O)[C@H](CCCCN)NC(=O)[C@H](CC(N)=O)NC(=O)[C@H](C)NC(=O)[C@H](CC(C)C)NC(=O)[C@H](C)NC(=O)[C@H](CO)NC(=O)[C@H](Cc3ccc(O)cc3)NC(=O)[C@H](CC(C)C)NC(=O)[C@@H](N)CCC(N)=O)CSSC[C@H](NC(=O)CNC(=O)[C@H](C(C)C)NC(=O)[C@H](Cc3c[nH]cn3)NC2=O)C(=O)N[C@@H]([C@@H](C)O)C(=O)N[C@@H](CCCCN)C(=O)N[C@@H](CCCNC(=N)N)C(=O)N[C@@H](CO)C(=O)N[C@@H](CC(C)C)C(=O)N[C@@H](C)C(=O)N[C@@H](CCCNC(=N)N)C(=O)N[C@@H](Cc2ccccc2)C(=O)N[C@H](C(=O)O)CSSC[C@@H](C(=O)NCC(=O)N[C@@H](CCSC)C(=O)N[C@@H](CO)C(=O)N[C@H](C(=O)N[C@@H](Cc2c[nH]c3ccccc23)C(=O)N[C@@H](CO)C(=O)O)[C@@H](C)O)NC1=O` [human H2 relaxin, reference compound] the “expression of pro-fibrotic gene smooth muscle alpha-actin” value [3] was “decreases in gene expression were concentration dependent and equally robust”.
